PMC8754431

Chains of the proteins cited; added tags and fusions are not shown.
UniProt E9PY46: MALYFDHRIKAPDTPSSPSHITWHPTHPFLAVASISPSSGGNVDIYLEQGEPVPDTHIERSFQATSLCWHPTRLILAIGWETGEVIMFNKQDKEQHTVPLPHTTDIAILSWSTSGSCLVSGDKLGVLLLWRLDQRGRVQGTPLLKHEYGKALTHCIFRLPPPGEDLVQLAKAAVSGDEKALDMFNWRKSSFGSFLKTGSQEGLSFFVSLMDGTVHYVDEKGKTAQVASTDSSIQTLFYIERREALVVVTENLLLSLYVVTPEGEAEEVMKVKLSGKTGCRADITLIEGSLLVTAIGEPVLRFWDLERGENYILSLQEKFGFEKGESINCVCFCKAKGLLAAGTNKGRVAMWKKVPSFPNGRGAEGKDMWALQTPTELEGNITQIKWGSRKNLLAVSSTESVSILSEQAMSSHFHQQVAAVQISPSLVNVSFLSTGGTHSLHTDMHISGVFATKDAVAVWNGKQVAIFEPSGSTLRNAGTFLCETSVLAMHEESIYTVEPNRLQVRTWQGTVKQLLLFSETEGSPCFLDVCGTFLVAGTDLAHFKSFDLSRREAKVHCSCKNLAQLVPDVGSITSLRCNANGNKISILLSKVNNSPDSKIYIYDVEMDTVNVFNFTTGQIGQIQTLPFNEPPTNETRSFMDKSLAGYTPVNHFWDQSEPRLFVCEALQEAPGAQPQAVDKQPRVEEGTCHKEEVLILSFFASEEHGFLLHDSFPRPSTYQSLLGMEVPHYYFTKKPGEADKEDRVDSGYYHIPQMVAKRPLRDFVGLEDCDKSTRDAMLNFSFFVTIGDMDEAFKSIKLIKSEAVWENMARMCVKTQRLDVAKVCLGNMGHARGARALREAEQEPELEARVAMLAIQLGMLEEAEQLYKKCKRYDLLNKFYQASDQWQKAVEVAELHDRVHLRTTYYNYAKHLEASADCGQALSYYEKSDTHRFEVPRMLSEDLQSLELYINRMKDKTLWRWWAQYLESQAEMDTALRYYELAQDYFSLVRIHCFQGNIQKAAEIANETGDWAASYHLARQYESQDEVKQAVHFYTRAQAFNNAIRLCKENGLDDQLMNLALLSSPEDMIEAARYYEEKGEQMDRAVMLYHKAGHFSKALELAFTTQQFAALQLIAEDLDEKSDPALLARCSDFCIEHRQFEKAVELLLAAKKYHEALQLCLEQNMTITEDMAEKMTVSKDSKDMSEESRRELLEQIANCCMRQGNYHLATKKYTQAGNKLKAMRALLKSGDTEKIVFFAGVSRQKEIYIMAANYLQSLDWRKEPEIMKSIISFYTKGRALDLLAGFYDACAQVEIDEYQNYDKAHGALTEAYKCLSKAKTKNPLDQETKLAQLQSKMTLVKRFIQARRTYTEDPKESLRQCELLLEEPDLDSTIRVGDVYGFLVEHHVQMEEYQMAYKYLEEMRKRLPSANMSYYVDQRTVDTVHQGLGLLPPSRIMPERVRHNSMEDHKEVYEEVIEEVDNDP

How the values were obtained:
[1] = target: T1, IFT88 (mouse (endogenous in E11.5 embryos)) (UniProt Q61371); assay: affinity purification with mass spectrometry; endogenous IFT88 or IFT140 immunoprecipitated (3 ug antibody, 500 ug protein, overnight 4 C, Protein G magnetic beads) from E11.5 Wdr35+/+ and Wdr35-/- mouse embryo lysates; IP lysis buffer 50 mM Tris-HCl pH 7.5, 100 mM NaCl, 10% glycerol, 0.5 mM EDTA, 0.5% IGEPAL; GFP antibody IP as control; label-free quantification
T1 sequence: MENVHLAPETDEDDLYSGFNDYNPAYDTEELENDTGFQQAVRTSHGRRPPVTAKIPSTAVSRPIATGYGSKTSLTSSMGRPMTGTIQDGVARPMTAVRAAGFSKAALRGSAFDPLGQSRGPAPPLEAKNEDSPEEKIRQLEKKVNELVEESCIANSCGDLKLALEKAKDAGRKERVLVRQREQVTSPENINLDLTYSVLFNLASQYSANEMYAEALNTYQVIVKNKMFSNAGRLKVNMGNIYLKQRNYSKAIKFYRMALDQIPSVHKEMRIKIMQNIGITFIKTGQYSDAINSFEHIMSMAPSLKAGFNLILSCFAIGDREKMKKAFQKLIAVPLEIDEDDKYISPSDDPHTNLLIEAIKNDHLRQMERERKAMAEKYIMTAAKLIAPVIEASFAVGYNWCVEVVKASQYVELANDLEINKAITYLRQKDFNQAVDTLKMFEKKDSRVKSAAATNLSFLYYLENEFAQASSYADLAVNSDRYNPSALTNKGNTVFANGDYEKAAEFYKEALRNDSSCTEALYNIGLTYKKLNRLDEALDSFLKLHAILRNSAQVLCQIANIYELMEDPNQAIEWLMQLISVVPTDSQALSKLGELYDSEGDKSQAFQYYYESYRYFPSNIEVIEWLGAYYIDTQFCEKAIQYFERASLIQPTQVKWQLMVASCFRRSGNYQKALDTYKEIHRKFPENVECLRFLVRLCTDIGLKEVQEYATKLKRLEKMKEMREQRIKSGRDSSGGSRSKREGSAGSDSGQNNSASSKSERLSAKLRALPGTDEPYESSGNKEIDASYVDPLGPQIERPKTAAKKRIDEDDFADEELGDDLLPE

[2] = target: IFT140 (mouse (endogenous in E11.5 embryos)) (UniProt E9PY46); assay: as above

B1: IFT22/RABL5 (protein, UniProt Q9DAI2 1-185)
chain: MLKAKILFVGPCESGKTVLANFLTESSDITEYNPTQGVRILEFENPHVTSNNKGTGCEFELWDCGGDSKFESCWPALMKDAHGVVIVFNADIPSHLKEIEMWYSCFVQQQFLQDSHCMLVAHHKPGSGGERGSLALSPPLNKLKLVHSNLEEDPEEVRVEFIKYLKSIINSMSESRDREEMLIIT
[1]
  binding: binds

B2: IFT144/WDR19 (protein, UniProt Q3UGF1 1-1341)
chain: MKRVFSLLEKSWLGAPIQFAWQKSSGNYLAVTGADYIVKIFDRHGQKRSEISLPGNCVTMDWDKDGDILAVIAEKSSCIYLWDANTNKTSQLDNGMRDQMSFLLWSKIGSFLAVGTIKGNLLIYNHQTSRKIPVLGKHTKKITCGCWNSENLLALGGEDKMITVSNQEGDTIRQTPVKSEPSDIKFSMSKTDERISSAENTISAVVGKKMLFLFHLNEPDNPVDLEFQQAYGNIVCYSWYGDGYIMIGFSRGTFLAISTHFPEVGQEIFKARDHKDNLTSVALSQTLNKAATCGDNCIKIHDLTELRDMYAIINLDDENKGLGTLSWTDDGQLLALSTQRGSLHVFLTKLPILGDACHTRIAYLTSLLEVTVANLIEGEPPITVSVDVEPTFVAVGLYHLAVGMNNRAWFYVLGENVVKKLKDVEYLGTVASICLHSDYAAALFEGKIQLHLIENEMLDAQEERETRLFPAVDDKCRILCHALTSDFLIYGTDTGIIHYFFIEDWQFVNDYRHPVGVKKLFPDPNGTRLVFIDEKSDGFVYCPVNDATYEIPDFSPTIKGVLWENWPMDKGVFIAYDDDKVYTYAFHKDTIQGSKVILAGSTKLPFSHKPLLLYNGELTCQTQSGKINSIYLSTHSFLGSMKDTEPTDLRQMLTQTLLLKRFSDAWDICKMLNDRTSWSELAKACLHHMEVEFAIRVSRTMGDVGTVMSLEQIKGIEDYNLLAGHLAMFTNDFNLAQDLYLASNCPVAALEMRRDLQHWDSALQLAKRLAPDQIPFISKEYAIQLEFTGDYVNALAHYEKGITGDNKEHDEVCLAGVAQMSIRMGDIRRGANQALKHPSRVLKRDCGAILENMKQFSEAAQLYEKGQYYDRAASVYIRCKNWAKVGELLPHVSSPKIHLQYAKAKEADGRYKEAVVAYENAKQWNSVIRIYLDHLNNPEKAVSIVRETQSLDGAKMVARFFLQLGDYGSAIQFLVLSKCNNEAFTLAQQHNKMEIYADIIGAEDTTNEDYQSIALYFEGEKRHFQAGKFFLLCGQYSRALKHFLKCPSSEDNVAIEMAIETVGQAKDELLTNQLIDHLMGESDGMPKDAKYLFRLYMALKQYREAARTAIIIAREEQSAGNYRNAHDVLFSMYAELKAQKIKIPSEMATNLMILHSYILVKIHVKSGDHMKGARMLIRVANNISKFPSHIVPILTSTVIECHRAGLKNSAFSFAAMLMRPEYRNKIDAKYKKKIEAMVRRPDTSETEEATTPCPFCQFLLPECELLCPGCKNNIPYCIATGRHMLKDDWTMCPHCGFPALYSEFKILLNSESTCPMCSERLNSSQLKKITDCSQYLRTEME
[2]
  binding: binds

B3: IFT139/TTC21B/THM1 (protein, UniProt Q0HA38 1-1315)
chain: MDSQGLKTLINYYCQERYYHHVLLVASEGMKKYSSDPVFRFYHAYGTLMEGKAQEALREFEAIKNKQDVSLCSLMALMYVHKMSPNPDREAILELDTKMKEQRKEAGRKALYHAGLFLWHIGRHDKAREYIDRMSKMPHDSNEGPILKAWLDITRGKEPYAKKALRYFEEGLQDGNDIFALLGKVLCLEIRQNYSGALETVSQIIVNFPSFLPAFEKKMKLQLALQDWDQTVETAQRLLLQDNHNVEALRMLALYYLCREGDVEKAATKLENLGNALDVMEPQNAQLFYKITLAFSRTCGRNQLILQKVQSFLEKAFSLTPQQAEIATELGYQMILQGKVKEAWKWYRTAMTLNESNISAVTGLIRCQLIEGQLQDADQQLEFFSEFQQSMGKSAELMYLHAVLATKKNNRQDEVINLLNDVVNTHFSHLEDLPLGIQYFEKLNPDFLLEVVTEYLNLCPIQPAGPGQPLSPVLRRCSSVLETIIRSVPGLPQAVFLMAKVKYLSGDTEAAYNNLQHCLEHSPSYAEAHLLMAQVYLSQDKVKLCSQSLELCLSYNFNVREYPLYHLIKAQSQKKMGEVAEAIKTLHMAMNLPGMRRSRASSKSKHRTEVDASHRLSIFLELVEVHRLNGEQHEAAKVLQDAIHEFSGTCEELRVTIANADLALAQGDTDRALSMLRNVTTEQPYFIEAKEKMADIYLKHRKEKMLYITCYREIAERMPSPRSFLLLGDAYMNIQEPEEAIVAYEQALNQNPKDGTLARKIGKALVKTHNYSKAITYYEAALKSGQQNCLCYDLAELLLRLKLYEKAEKVLQHSLAHEPVSELSALMVDGRSQVLLAKVYSKMERPSDAIAALQQARELQARILKRVQMEQPDAVPSQKHFAAEICAEIAKHSAAQRDYEKAITFYREALVHCETDSKIMLELAQLYLAQEDLDASLRHCALLLQRDQDNEPATMLMADLMFRKQDYEQAVYHLQQLLDRKPDNFMTLSRLIDLLRRCGKLEDVPRFFLMAEKHNSRTKLEPGFQYCKGLHFWYTGEPNDALRHFNKARKDSDWGQNALYNMIEICLNPDNETIGGEVFENLNGDLGTSPEKQESVQLAVRTAEKLLKELKPQTVQGRLQLRIMENCCLMATKQKSSVEQALNTFTEIAASEKDHIPALLGMATAYMILKQTPKARNQLKRIAKMPWNPIEAEDLEKSWLLLADIYIQSAKYDMAEELLKRCLCHNRSCCKAYEYMGYIMEKEQAYTDAAFNYEMAWKHSNQTNPAVGYKLAFNYLKAKRYVDAIDVCHQVLEAHPTYPKIRKDILDKARASLRP
[2]
  binding: binds

B4: WDR35/IFT121 (protein, UniProt Q8BND3 1-1181)
chain: MFFYLSKKIAVPNNVKLKCISWNKDQGFIACGGEDGLLKVLRLETQTDDSKLRGLAAPSNLSMNQNLEGHSGAVQVVTWNEQYQKLTTSDQNGLIIVWMLYKGSWYEEMINNRNKSVVRSMSWNADGQKICIVYEDGAVIVGSVDGNRIWGKDLKGIQLCHVTWSADSKILLFGMANGEIHIYDNQGNFIMKMKLNCLVNVTGAISIAGIHWYHGTEGYVEPDCPCLAICFDNGRCQIMRHENDQNPVLIDTGMYVVGIQWNHIGSVLAVAGSQKVVTQDKDINIVQFYTPFGEHLGTLKVPGKQMCSLSWEGGGLKIALAVDSFIYFANIRPDYKWGYCSNTVVYAYTRPDRPEYCVVFWDTKNSEKYVKYVKSLISITTCGDFCILATKADENHPQEENEMETFGATFVLVLCNSIGTPLDPKYIDLVPLFVAMTKTHVIAASKEAFYTWQYRVAKKLTALEINQITRSRKEGRERIYHVDDVPSGSVDGVFDYSKAIQGTRDPICAITASDKTLIVGRESGVIQRYSFPNVALIQKYSLDCRACQLSLNCNSSRLAIIDIAGVLTFFDLDTRVTDSTGQQVVGELLKLERKDVWDMKWAKDNPDLFAMMEKTRMYVFRNLDPEEPIQTSGYICNFEDLEIKSVLLDEILKDPEHPSKDYIMNFEIRSLRDSRALIEKVGIEDASQFIEDNPHPRLWRLLAEAALQKLDLYTAQQAFVRCKDYQGIKFVKLLGNLQSESMKQAEVIAYFGRFEDAERMYQDMDRRDLAIGLRMKLGDWFRVLQLLKTGSGDADDSLLEQANNAIGEYFADRQKWQNAVQYYVKGRNQERLAECYYMLEDYEGLETLANSLPENHKLLPEIAQMFVRVGMCEQAVSAFLKCNQPKAAVDTCVHLNQWNKAVELAKSHSMKEIGSLLARYASHLLEKNKTLDAIELYRKASYFFDAAKLMYKIADEEAKKRTKPLRVKKLYVLSALLIEQYHEQMKNAQRGKVKGKNSEATSALAGLLEEEVLSTTSRFTDNAWRGAEAYHFFILAQRQLYEGYVDTALKTALHLRDYEDIIPSVEIYSLLALCACASRAFGTCSKAFIKLESLETLSAEQKQQYEDLALEIFTKHTPKDNRKSELNSLLEGGEGKLPTCIATGSPIIEYQFWVCKVCKHYVLAQEISNYNFCPLCHSSVE
[2]
  binding: binds

B5: IFT43 (protein, UniProt Q9DA69 1-206)
chain: MDDLLDLGEERRRSSATSGAKMGRRAHQESTQAENYLNSKNSSLTQTGEAPPPKPPRRQGGWADDSMKMAKLGKKVSEEMEDHRLRQQNLMGSDDDDIPVIPDLEDVQEEDFVLQVASPPSIQVNRVMTYRDLDNDLMKYSAFQTLDGEIDLKLLTKVLAPEHEVREDDVGWDWDHLYTEVSSELLTEWDLLRAEKEDPVGPSRYI
[2]
  binding: binds

No constants are given. Whether binding was seen depends on the method and setting. In cells and extracts the contact can be indirect. Here binding means that the protein was enriched with, or labelled near, the bait; the list need not be complete.
